Experimental data taken from PubChem BioAssay (EPA / NIEHS).
Values joined by “and” are separate entries in the source; they are usually repeats but may differ in a detail not shown here. Identical values can stand only once. Inconclusive results, whose numbers are uncertain, are shown with a selection of clear calls. Potencies of inconclusive entries are doubtful fits and often do not repeat. A structure can be active in one record and inactive in another. Active and inactive are the calls of the source. How the source made its calls: active means hit-call score of the fitted dose curve at least 0.9, where 1 is the maximum; inconclusive means response in the unintended direction; inactive means score below 0.9.

assay: Tanguay_ZF_120hpf_PE_legacy: (Legacy) Oregon State University Tanguay Lab 120 Hour Post-fertilization zebrafish Assay for Pericardial Edema (AID 2283640);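 on AC50: potency for increased incidence of pericardial edema versus DMSO baseline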
Procedure, shortened: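 Tropical 5D wild-type zebrafish embryos were exposed statically to 120 hpf at 28C, sealed and foil-covered, in 0.64% DMSO final. Pericardial edema was scored present/absent by brightfield microscopy; dead embryos were not scored.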

Row | SMILES | AC50 | outcome
1 | Clc1ccccc1-c1nnc(-c2ccccc2Cl)nn1 | inconclusive: 9.45 µM | 
2 | O=C(O)C1C(C(=O)O)C2(Cl)C(Cl)=C(Cl)C1(Cl)C2(Cl)Cl (stereo unspecified) |  | inactive
3 | CCSC(=O)N(CC)C1CCCCC1 | inconclusive: 49.8 µM | 
4 | O=C(O)C(F)(F)C(F)(F)C(F)(F)C(F)(F)C(F)(F)C(F)(F)C(F)(F)C(F)(F)C(F)(F)F | inconclusive: 59.8 µM | 

assay: Tanguay_ZF_120hpf_BRAI_legacy: (Legacy) Oregon State University Tanguay Lab 120 Hour Post-fertilization zebrafish Assay for Brain Malformation (AID 2283641)
Procedure, shortened: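 Tropical 5D wild-type zebrafish embryos were exposed statically in sealed, foil-covered plates at 28C until 120 hpf, with 0.64% (vol/vol) final DMSO. Brain malformation was scored present/absent by brightfield microscopy, relative to DMSO baseline.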

Row | SMILES | AC50 | outcome
5 | Oc1ccc(Cl)cc1Cc1ccccc1 | inconclusive: 20.4 µM | 
6 | CCCCC(O)(Cn1cncn1)c1ccc(Cl)cc1Cl (stereo unspecified) | inconclusive: 30.8 µM | 
7 | CC(C)Oc1cccc(NC(=O)c2ccccc2C(F)(F)F)c1 | active: 38.3 µM | 
8 | C#CCOS(=O)OC1CCCCC1Oc1ccc(C(C)(C)C)cc1 (stereo unspecified) |  | inactive
9 | C[N+]1(C)CCCCC1 |  | inactive
10 | CCOc1cc(Oc2ccc(C(F)(F)F)cc2Cl)ccc1[N+](=O)[O-] | inconclusive: 117 µM | 
11 | Cc1c(F)c(F)c(COC(=O)C2C(/C=C(\Cl)C(F)(F)F)C2(C)C)c(F)c1F (stereo unspecified) | active: 2.6 µM | 
12 | CCNS(=O)(=O)C(F)(F)C(F)(F)C(F)(F)C(F)(F)C(F)(F)C(F)(F)C(F)(F)C(F)(F)F | active: 45.5 µM | 
13 | CC(C)(C)C(O)C(Oc1ccc(Cl)cc1)n1cncn1 (stereo unspecified) | active: 49.8 µM and active: 33.6 µM and active: 48.3 µM | 
14 | O=C(O)C1C(C(=O)O)C2(Cl)C(Cl)=C(Cl)C1(Cl)C2(Cl)Cl (stereo unspecified) |  | inactive
15 | COC(=O)c1c(C(F)F)nc(C(F)(F)F)c(C2=NCCS2)c1CC(C)C |  | inactive
16 | Nc1c(Cl)cc([N+](=O)[O-])cc1Cl | active: 46.3 µM | 

assay: Tanguay_ZF_120hpf_PFIN_legacy: (Legacy) Oregon State University Tanguay Lab 120 Hour Post-fertilization zebrafish Assay for Pectoral Fin Malformation (AID 2283648);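 further: each larva judged yes or no for fin defect by brightfield with dead larvae skipped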
Procedure, shortened: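 Dechorionated Tropical 5D wild-type zebrafish embryos, one per well, statically exposed from 6 to 120 hpf at 28C with 0.64% DMSO final. Pectoral fin malformation scored present/absent by brightfield at 120 hpf; not scored in dead embryos.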

Row | SMILES | AC50 | outcome
17 | Oc1ccc(Cl)cc1Cc1ccccc1 | inconclusive: 20.4 µM | 
18 | C=CC1(C)OC(=O)N(c2cc(Cl)cc(Cl)c2)C1=O (stereo unspecified) | inconclusive: 0.713 µM | 
19 | O=[N+]([O-])c1cc(C(F)(F)F)c(Cl)c([N+](=O)[O-])c1Nc1ncc(C(F)(F)F)cc1Cl |  | inactive
20 | CCCN(CCC)c1c([N+](=O)[O-])cc(S(N)(=O)=O)cc1[N+](=O)[O-] | inconclusive: 5.22 µM | 
21 | C#CCOS(=O)OC1CCCCC1Oc1ccc(C(C)(C)C)cc1 (stereo unspecified) |  | inactive
22 | CC(C)(C)C(O)/C(=C\c1ccc(Cl)cc1Cl)n1cncn1 (stereo unspecified) | active: 42.5 µM | 
23 | CCNS(=O)(=O)C(F)(F)C(F)(F)C(F)(F)C(F)(F)C(F)(F)C(F)(F)C(F)(F)C(F)(F)F | active: 48.4 µM | 
24 | CC(C)(C)C(O)C(Oc1ccc(Cl)cc1)n1cncn1 (stereo unspecified) | active: 47.2 µM and active: 33.2 µM and active: 39.7 µM | 
25 | Oc1ccc(C(c2ccc(O)cc2)(C(F)(F)F)C(F)(F)F)cc1 | active: 53.3 µM | 
26 | Nc1c(Cl)cc([N+](=O)[O-])cc1Cl | active: 42.1 µM | 
27 | O=C(O)C(F)(F)C(F)(F)C(F)(F)C(F)(F)C(F)(F)C(F)(F)C(F)(F)C(F)(F)C(F)(F)F | inconclusive: 5.18 µM | 

assay: Tanguay_ZF_120hpf_CFIN_legacy: (Legacy) Oregon State University Tanguay Lab 120 Hour Post-fertilization zebrafish Assay for Caudal Fin Malformation (AID 2283649)
Procedure, shortened: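 Tropical 5D wild-type embryos, dechorionated with pronase at 4 hpf, were placed singly in wells at 6 hpf and statically exposed to compound at 28C until 120 hpf (0.64% DMSO). Caudal fin malformation was scored present/absent by brightfield microscopy.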

Row | SMILES | outcome | AC50
28 | Nn1cnnc1 | inactive | 
29 | Oc1ccc(Cl)cc1Cc1ccccc1 |  | inconclusive: 646 nM and inconclusive: 10.1 µM
30 | CCCCC(O)(Cn1cncn1)c1ccc(Cl)cc1Cl (stereo unspecified) |  | inconclusive: 199 µM
31 | CO/N=C(/C1=NOCCO1)c1ccccc1Oc1ncnc(Oc2ccccc2Cl)c1F |  | active: 6.85 µM
32 | CN1CSC(=S)N(C)C1 |  | inconclusive: 55.1 µM
33 | O=c1[nH]c(=O)[nH]c(=O)[nH]1 |  | inconclusive: 201 µM
34 | [As]#[In] | inactive | 
35 | CCCN(CCC)c1c([N+](=O)[O-])cc(S(N)(=O)=O)cc1[N+](=O)[O-] |  | inconclusive: 2.95 µM
36 | C=C(C)CN(CC)c1c([N+](=O)[O-])cc(C(F)(F)F)cc1[N+](=O)[O-] |  | inconclusive: 27.7 µM
37 | Clc1ccccc1-c1nnc(-c2ccccc2Cl)nn1 |  | inconclusive: 26.3 µM
38 | CC(C)(C)C(O)/C(=C\c1ccc(Cl)cc1Cl)n1cncn1 (stereo unspecified) |  | inconclusive: 186 µM
39 | CCNS(=O)(=O)C(F)(F)C(F)(F)C(F)(F)C(F)(F)C(F)(F)C(F)(F)C(F)(F)C(F)(F)F |  | inconclusive: 1.71 µM
40 | CC(C)(C)C(O)C(Oc1ccc(Cl)cc1)n1cncn1 (stereo unspecified) |  | active: 40.7 µM
41 | Oc1ccc(C(c2ccc(O)cc2)(C(F)(F)F)C(F)(F)F)cc1 |  | active: 54 µM
42 | OCCOc1ccccc1 | inactive | 
43 | Nc1c(Cl)cc([N+](=O)[O-])cc1Cl |  | active: 39.1 µM
44 | CCSC(=O)N(CC)C1CCCCC1 | inactive | 

assay: Tanguay_ZF_120hpf_PIG_legacy: (Legacy) Oregon State University Tanguay Lab 120 Hour Post-fertilization zebrafish Assay for Pigmentation Malformation (AID 2283650)
Procedure, shortened: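 Dechorionated Tropical 5D wild-type embryos, one per well from 6 hpf, statically exposed at 28C in the dark until 120 hpf, 0.64% DMSO final. Pigmentation scored present/absent by brightfield microscopy; dead embryos not scored; fitted versus DMSO.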

Row | SMILES | AC50 | outcome
45 | Nn1cnnc1 | inconclusive: 143 µM | 
46 | CO/N=C(/C1=NOCCO1)c1ccccc1Oc1ncnc(Oc2ccccc2Cl)c1F | inconclusive: 20.2 µM | 
47 | CCC(C)c1ccc(O)cc1 (stereo unspecified) | inconclusive: 202 µM | 
48 | CCCN(CCC)c1c([N+](=O)[O-])cc(S(N)(=O)=O)cc1[N+](=O)[O-] | inconclusive: 86 µM and inconclusive: 2.54 µM | 
49 | Oc1cccc2cccnc12 |  | inactive
50 | CCOc1cc(Oc2ccc(C(F)(F)F)cc2Cl)ccc1[N+](=O)[O-] | inconclusive: 26 µM | 
51 | Cc1c(F)c(F)c(COC(=O)C2C(/C=C(\Cl)C(F)(F)F)C2(C)C)c(F)c1F (stereo unspecified) | active: 3.42 µM | 
52 | CCNS(=O)(=O)C(F)(F)C(F)(F)C(F)(F)C(F)(F)C(F)(F)C(F)(F)C(F)(F)C(F)(F)F | active: 46.8 µM | 
53 | CC(C)(C)C(O)C(Oc1ccc(Cl)cc1)n1cncn1 (stereo unspecified) | active: 44.2 µM and active: 47.8 µM | 
54 | Oc1ccc(C(c2ccc(O)cc2)(C(F)(F)F)C(F)(F)F)cc1 | active: 56.9 µM | 
55 | OCCOc1ccccc1 |  | inactive
56 | Nc1c(Cl)cc([N+](=O)[O-])cc1Cl | active: 10.8 µM | 
